Assay [1] addresses LR-FLAG (leptin receptor, FLAG-tagged) (UniProt P48356). Put plainly: co-IP; Hek293T cells co-transfected with tagged EGFR and LR or LR-FATT; lysed 24 h later in modified RIPA buffer; immunoprecipitation with anti-FLAG M2 affinity resin; Western blot with anti-FLAG and anti-E-tag; no ligand. Background: In western blotting, separated proteins are transferred to a membrane and probed.

Chains of the proteins cited; added tags and fusions are not shown. Residues count along the entry.
UniProt P48356, residues 22-1162: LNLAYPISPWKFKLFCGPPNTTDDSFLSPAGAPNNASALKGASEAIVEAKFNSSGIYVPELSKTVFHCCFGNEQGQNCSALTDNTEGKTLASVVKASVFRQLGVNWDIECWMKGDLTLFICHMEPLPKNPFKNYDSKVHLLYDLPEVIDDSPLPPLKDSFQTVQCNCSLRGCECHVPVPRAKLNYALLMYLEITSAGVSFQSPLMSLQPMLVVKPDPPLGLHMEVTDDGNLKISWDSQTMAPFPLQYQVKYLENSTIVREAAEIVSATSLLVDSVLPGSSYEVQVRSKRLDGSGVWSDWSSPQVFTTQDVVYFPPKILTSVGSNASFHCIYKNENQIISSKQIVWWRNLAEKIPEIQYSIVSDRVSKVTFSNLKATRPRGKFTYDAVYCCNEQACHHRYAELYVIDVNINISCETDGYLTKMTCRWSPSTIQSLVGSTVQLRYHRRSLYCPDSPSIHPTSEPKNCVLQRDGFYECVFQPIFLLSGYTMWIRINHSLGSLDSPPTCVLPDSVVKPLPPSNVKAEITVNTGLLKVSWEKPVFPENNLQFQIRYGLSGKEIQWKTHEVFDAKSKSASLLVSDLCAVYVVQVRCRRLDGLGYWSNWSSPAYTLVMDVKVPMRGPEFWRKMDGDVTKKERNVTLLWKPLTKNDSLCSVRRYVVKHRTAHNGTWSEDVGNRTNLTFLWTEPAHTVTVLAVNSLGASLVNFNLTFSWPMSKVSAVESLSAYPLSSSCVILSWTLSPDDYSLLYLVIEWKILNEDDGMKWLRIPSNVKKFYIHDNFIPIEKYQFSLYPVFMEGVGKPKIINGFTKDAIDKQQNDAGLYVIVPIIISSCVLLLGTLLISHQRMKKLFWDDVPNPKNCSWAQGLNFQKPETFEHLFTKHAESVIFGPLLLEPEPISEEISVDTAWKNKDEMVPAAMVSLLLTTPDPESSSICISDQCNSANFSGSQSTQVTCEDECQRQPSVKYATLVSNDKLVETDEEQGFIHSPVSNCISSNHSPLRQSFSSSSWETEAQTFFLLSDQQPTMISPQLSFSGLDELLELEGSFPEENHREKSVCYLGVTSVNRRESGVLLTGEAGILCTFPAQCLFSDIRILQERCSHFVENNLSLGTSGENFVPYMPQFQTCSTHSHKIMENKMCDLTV
UniProt P41160, residues 22-167: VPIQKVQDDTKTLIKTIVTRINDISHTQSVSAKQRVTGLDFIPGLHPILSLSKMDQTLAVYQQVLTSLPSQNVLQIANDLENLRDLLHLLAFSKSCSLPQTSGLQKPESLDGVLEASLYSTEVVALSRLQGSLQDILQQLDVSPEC

Assay [2] deals with LR co-expressed with SNAP-EGFR on HeLa cells (UniProt P48356). Put plainly: labelling of cells with fluorescent leptin (microscopy); HeLa cells expressing SNAP-EGFR (SNAP-green) with or without LR, incubated with leptin-d2 (20 nM); only the binder purified.
The target in the next assay is SNAP-EGFR on HeLa cells (UniProt P00533). The assay is described as above.

The record followed here is paper PMC11105424.

No constants are given. Whether binding was seen depends on the method and setting. For part of these data: In cells and extracts the contact can be indirect. Some entries that bind do so weakly or less than the wild type.

“E-tagged EGFR (epidermal growth factor receptor) (from UniProt P00533 25-1210)”: in assay [1], the binding entry is given as “binds”.
With “leptin-d2 (leptin labelled with the d2 fluorophore) (from UniProt P41160 22-167) (ligand)”, the binding entry is on record as “binds” in assay [2] and “no binding (tested: 20 nM)” in the assay with SNAP-EGFR on HeLa cells.
